Publication doi:10.1101/2025.05.07.652703
No constants are given. Whether binding was seen depends on the method and setting. In cells and extracts the contact can be indirect. Some binding calls cover weakened binding; strength is not graded here. Sequences can lack the tags named with a protein.

T1: GST-HsSec31a1041-1220 (human) (UniProt O94979)
T1 sequence: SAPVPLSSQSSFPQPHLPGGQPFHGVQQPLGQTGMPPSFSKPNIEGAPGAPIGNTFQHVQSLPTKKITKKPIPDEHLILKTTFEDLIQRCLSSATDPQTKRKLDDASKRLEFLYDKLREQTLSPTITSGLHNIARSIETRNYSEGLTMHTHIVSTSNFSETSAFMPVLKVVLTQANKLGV


Target: T1, GST-HsSec31a1041-1220 (human)
Assay: pull-down

Binder | binding
GFP-p125A (protein, UniProt Q9Y6Y8 1-1000) MAERKPNGGSGGASTSSSGTNLLFSSSATEFSFNVPFIPVTQASASPASLLLPGEDSTDVGEEDSFLGQTSIHTSAPQTFSYFSQVSSSSDPFGNIGQSPLTTAATSVGQSGFPKPLTALPFTTGSQDVSNAFSPSISKAQPGAPPSSLMGINSYLPSQPSSLPPSYFGNQPQGIPQPGYNPYRHTPGSSRANPYIAPPQLQQCQTPGPPAHPPPSGPPVQMYQMPPGSLPPVPSSVQSPAQQQVPARPGAPSVQVPSPFLLQNQYEPVQPHWFYCKEVEYKQLWMPFSVFDSLNLEEIYNSVQPDPESVVLGTDGGRYDVYLYDRIRKAAYWEEEPAEVRRCTWFYKGDTDSRFIPYTEEFSEKLEAEYKKAVTTNQWHRRLEFPSGETIVMHNPKVIVQFQPSSVPDEWGTTQDGQTRPRVVKRGIDDNLDEIPDGEMPQVDHLVFVVHGIGPVCDLRFRSIIECVDDFRVVSLKLLRTHFKKSLDDGKVSRVEFLPVHWHSSLGGDATGVDRNIKKITLPSIGRFRHFTNETLLDILFYNSPTYCQTIVEKVGMEINHLHALFMSRNPDFKGGVSVAGHSLGSLILFDILSNQKDLNLSKCPGPLAVANGVVKQLHFQEKQMPEEPKLTLDESYDLVVENKEVLTLQETLEALSLSEYFSTFEKEKIDMESLLMCTVDDLKEMGIPLGPRKKIANFVEHKAAKLKKAASEKKAVAATSTKGQEQSAQKTKDMASLPSESNEPKRKLPVGACVSSVCVNYESFEVGAGQVSVAYNSLDFEPEIFFALGSPIAMFLTIRGVDRIDENYSLPTCKGFFNIYHPLDPVAYRLEPMIVPDLDLKAVLIPHHKGRKRLHLELKESLSRMGSDLKQGFISSLKSAWQTLNEFARAHTSSTQLQEELEKVANQIKEEEEKQVVEAEKVVESPDFSKDEDYLGKVGMLNGGRRIDYVLQEKPIESFNEYLFALQSHLCYWESEDTALLLLKEIYRTMNISPEQPQH | binds
endogenous p125A (protein, UniProt Q9Y6Y8 1-1000) MAERKPNGGSGGASTSSSGTNLLFSSSATEFSFNVPFIPVTQASASPASLLLPGEDSTDVGEEDSFLGQTSIHTSAPQTFSYFSQVSSSSDPFGNIGQSPLTTAATSVGQSGFPKPLTALPFTTGSQDVSNAFSPSISKAQPGAPPSSLMGINSYLPSQPSSLPPSYFGNQPQGIPQPGYNPYRHTPGSSRANPYIAPPQLQQCQTPGPPAHPPPSGPPVQMYQMPPGSLPPVPSSVQSPAQQQVPARPGAPSVQVPSPFLLQNQYEPVQPHWFYCKEVEYKQLWMPFSVFDSLNLEEIYNSVQPDPESVVLGTDGGRYDVYLYDRIRKAAYWEEEPAEVRRCTWFYKGDTDSRFIPYTEEFSEKLEAEYKKAVTTNQWHRRLEFPSGETIVMHNPKVIVQFQPSSVPDEWGTTQDGQTRPRVVKRGIDDNLDEIPDGEMPQVDHLVFVVHGIGPVCDLRFRSIIECVDDFRVVSLKLLRTHFKKSLDDGKVSRVEFLPVHWHSSLGGDATGVDRNIKKITLPSIGRFRHFTNETLLDILFYNSPTYCQTIVEKVGMEINHLHALFMSRNPDFKGGVSVAGHSLGSLILFDILSNQKDLNLSKCPGPLAVANGVVKQLHFQEKQMPEEPKLTLDESYDLVVENKEVLTLQETLEALSLSEYFSTFEKEKIDMESLLMCTVDDLKEMGIPLGPRKKIANFVEHKAAKLKKAASEKKAVAATSTKGQEQSAQKTKDMASLPSESNEPKRKLPVGACVSSVCVNYESFEVGAGQVSVAYNSLDFEPEIFFALGSPIAMFLTIRGVDRIDENYSLPTCKGFFNIYHPLDPVAYRLEPMIVPDLDLKAVLIPHHKGRKRLHLELKESLSRMGSDLKQGFISSLKSAWQTLNEFARAHTSSTQLQEELEKVANQIKEEEEKQVVEAEKVVESPDFSKDEDYLGKVGMLNGGRRIDYVLQEKPIESFNEYLFALQSHLCYWESEDTALLLLKEIYRTMNISPEQPQH | binds
